The values below come from PMC10405847.

Chains of the proteins cited; added tags and fusions are not shown. Lines headed by an entry give the natural chain unless they say otherwise; changes in a name come on top.
UniProt Q60843: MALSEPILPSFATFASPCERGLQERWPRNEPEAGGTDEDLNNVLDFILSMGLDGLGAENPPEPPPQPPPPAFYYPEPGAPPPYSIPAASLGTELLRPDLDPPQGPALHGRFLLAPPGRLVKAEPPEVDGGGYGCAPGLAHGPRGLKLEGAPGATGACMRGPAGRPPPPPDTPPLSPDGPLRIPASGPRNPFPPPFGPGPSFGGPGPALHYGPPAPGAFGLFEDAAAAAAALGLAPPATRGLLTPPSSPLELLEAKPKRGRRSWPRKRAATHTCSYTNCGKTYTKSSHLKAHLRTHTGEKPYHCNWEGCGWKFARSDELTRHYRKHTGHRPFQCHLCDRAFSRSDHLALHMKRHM
UniProt Q9EPK5: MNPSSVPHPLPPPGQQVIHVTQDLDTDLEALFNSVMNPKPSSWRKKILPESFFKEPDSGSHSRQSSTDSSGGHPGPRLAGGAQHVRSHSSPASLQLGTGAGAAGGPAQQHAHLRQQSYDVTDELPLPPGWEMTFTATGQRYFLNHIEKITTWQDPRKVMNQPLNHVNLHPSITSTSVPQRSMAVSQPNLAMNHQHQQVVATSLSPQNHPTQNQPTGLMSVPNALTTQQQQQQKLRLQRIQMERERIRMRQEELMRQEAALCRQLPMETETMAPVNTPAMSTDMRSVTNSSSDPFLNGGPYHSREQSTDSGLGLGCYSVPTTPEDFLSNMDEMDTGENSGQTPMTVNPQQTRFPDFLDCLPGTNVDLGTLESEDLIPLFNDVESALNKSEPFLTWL

The target of this experiment is Myc-tagged KLF2 (UniProt Q60843). Briefly: co-IP; HEK293T transfected with wild-type or deletion mutants of TAZ and Myc-tagged KLF2; immunoprecipitation with Myc-tag antibodies, immunoblot. (In general: In western blotting, separated proteins are transferred to a membrane and probed.)

No constants are given. Whether binding was seen depends on the method and setting. In cells and extracts the contact can be indirect.

With TAZ∆WW (from UniProt Q9EPK5), the binding result is reported as “no binding”.
